PubChem BioAssay AID1259405 – NCATS, 2018
In all, the deposit lists about 50,000 reagents; shown is a random part of them. Of all reagents, about 4,000 (8%) are marked active. 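Mouse siRNA library applied to hamster cells; one well for each siRNA.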 Reagents against one gene are numbered here.

Assay: 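Silenced genes that increase secreted GFP made by CHO cells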 (primary screen)
Cells: Chinese hamster CHO-K1 ovary cells with stable secreted eGFP expression
Reagents: single siRNA against mouse genes, 0.8 pmol siRNA per well (2 µl of 400 nM stock)
Timing: 3 days
Detection: 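Per-well intracellular GFP measured by laser scanning cytometry, plus viability from ATP luminescence, each relative to plate median of non-targeting control wells, in %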
Reading the numbers: GFP, % of control: higher = more GFP per well, higher productivity; viability (ATP), % of control: higher = more viable cells (more ATP)
Rule for the call: 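a knock-down is called active if GFP reaches 120% or more of non-targeting control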

GFP, % of control | viability (ATP), % of control | outcome | gene symbol | reagent
60 | 75.1 | inactive | Btbd1 | 1
61.6 | 82.3 | inactive | Btbd1 | 2
40.5 | 49.9 | inactive | Btbd1 | 3
78.1 | 65.2 | inactive | Dnajc22 | 1
39.4 | 41.5 | inactive | Dnajc22 | 2
52.6 | 64.1 | inactive | Dnajc22 | 3
98.6 | 98.5 | inactive | Dpysl3 | 1
88.3 | 99.5 | inactive | Dpysl3 | 2
68.8 | 134 | inactive | Dpysl3 | 3
131 | 118 | active | Ccl19 | 1
71.4 | 86.1 | inactive | Ccl19 | 2
143 | 120 | active | Smim11 | 1
98.8 | 70.8 | inactive | Smim11 | 2
30.4 | 61.7 | inactive | Smim11 | 3
31.1 | 62.3 | inactive | Scg5 | 1
109 | 95.9 | inactive | Scg5 | 2
89.1 | 134 | inactive | Scg5 | 3
46.8 | 72.8 | inactive | Tmem201 | 1
54.7 | 86 | inactive | Tmem201 | 2
27.9 | 22 | inactive | Tmem201 | 3
96.6 | 117 | inactive | Zfyve21 | 1
104 | 81.1 | inactive | Zfyve21 | 2
81.8 | 83 | inactive | Hsd17b7 | 1
50.8 | 76.1 | inactive | Hsd17b7 | 2
65.3 | 83 | inactive | Hsd17b7 | 3
41.6 | 58 | inactive | Rnf214 | 1
68.1 | 39.6 | inactive | Rnf214 | 2
96 | 102 | inactive | Rnf214 | 3
71.4 | 100 | inactive | Ctso | 1
73.4 | 59.4 | inactive | Ctso | 2
76.4 | 60.2 | inactive | Ctso | 3
66.8 | 76 | inactive | Mmp25 | 1
55.2 | 62.8 | inactive | Mmp25 | 2
97.5 | 53.6 | inactive | Prb1a | 1
25 | 44.3 | inactive | Prb1a | 2
105 | 157 | inactive | Mag | 1
82 | 71.1 | inactive | Mag | 2
65.3 | 69.7 | inactive | Vmn1r38 | 1
74.4 | 46.1 | inactive | Vmn1r38 | 2
88.6 | 93.3 | inactive | Vmn1r38 | 3

Continued; the last 6 above are carried over.
GFP, % of control | viability (ATP), % of control | outcome | gene symbol | reagent
25 | 44.3 | inactive | Prb1a | 2
105 | 157 | inactive | Mag | 1
82 | 71.1 | inactive | Mag | 2
65.3 | 69.7 | inactive | Vmn1r38 | 1
74.4 | 46.1 | inactive | Vmn1r38 | 2
88.6 | 93.3 | inactive | Vmn1r38 | 3
65.7 | 69.3 | inactive | Rnf212 | 1
96.4 | 86.5 | inactive | Rnf212 | 2
100 | 65.3 | inactive | Rnf212 | 3
77.1 | 67.3 | inactive | Dspp | 1
89.3 | 101 | inactive | Dspp | 2
97 | 75.8 | inactive | Dspp | 3
52 | 67.9 | inactive | Prkce | 1
54.7 | 60.7 | inactive | Prkce | 2
42.6 | 29.4 | inactive | Prkce | 3
80.8 | 142 | inactive | Lamc2 | 1
83.3 | 69.6 | inactive | Lamc2 | 2
77.2 | 88 | inactive | Sst | 1
57.7 | 49 | inactive | Sst | 2
66.7 | 75.4 | inactive | Sst | 3
53.3 | 64.2 | inactive | Spsb4 | 1
73.5 | 112 | inactive | Spsb4 | 2
18.1 | 78.8 | inactive | Spsb4 | 3
60.4 | 91.4 | inactive | Cacna1c | 1
108 | 63.5 | inactive | Cacna1c | 2
55 | 46.1 | inactive | Cacna1c | 3
54.7 | 60.9 | inactive | Sgk2 | 1
74.4 | 59.1 | inactive | Hrh2 | 1
57.9 | 81.7 | inactive | Hrh2 | 2
71.4 | 85.6 | inactive | Hrh2 | 3
73.4 | 46.8 | inactive | Pycard | 1
71.4 | 77.3 | inactive | Pycard | 2
79.8 | 94.4 | inactive | Pycard | 3
19.8 | 27.1 | inactive | Acot3 | 1
60.5 | 81.1 | inactive | Acot3 | 2
45 | 54 | inactive | Acot3 | 3
72 | 70.6 | inactive | Aifm2 | 1
124 | 66.2 | active | Aifm2 | 2
75.6 | 81.4 | inactive | Aifm2 | 3
84.1 | 92 | inactive | Akap19 | 1
92.3 | 88.5 | inactive | Akap19 | 2
106 | 72.1 | inactive | Akap19 | 3
124 | 83.3 | active | Efcab12 | 1
82.6 | 86.4 | inactive | Efcab12 | 2
99.6 | 112 | inactive | Efcab12 | 3
53.8 | 44.2 | inactive | Pip5k1c | 1
20.1 | 28.1 | inactive | Fam78b | 1
96 | 103 | inactive | Fam78b | 2
99.2 | 96.2 | inactive | Fam78b | 3
98.1 | 78.6 | inactive | Zfp606 | 1
69.1 | 70.8 | inactive | Zfp606 | 2
